PubChem BioAssay AID1259272 – Sanger Institute, 2017

Purpose: 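Kinome-wide siRNA search for genes whose silencing boosts targeted drug effects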 (primary screen)
System: SW1116 human colorectal cancer cells
Reagents: siRNA pool against human genes
Conditions: anchor drugs BYL719 (1 µM), cetuximab (5 µg/ml) or trametinib (10 nM), or DMSO vehicle; exposure length not given
Measurement: 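Replicate-averaged viability versus control-pool wells, with a robust z-score for siRNA alone and a per-drug synergy score (BYL719, cetuximab, trametinib)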
Direction: viability z-score, no drug: higher = more cells remaining; strongly negative means essential gene; viability, no drug: higher = more viable cells; synergy score with BYL719 and synergy score with cetuximab and synergy score with trametinib: higher = stronger synthetic-lethal synergy with the drug
Active means: 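a robust z-score under -3 with siRNA and no drug marks the gene essential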
Meaning of the calls: active = essential (knock-down alone); inactive = no change
The whole screen tested 794 reagents; below is a random part of them. 7 of all reagents (0.88%) were called active. 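Essential calls reflect knock-down without drug only, not synergy with drugs; drug exposure length not given.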 Viability is capped at 1. Not stated in the record: the amount of reagent, the time to read-out.

no.	target gene	PubChem SID	viability z-score, no drug	viability, no drug (fraction of control)	synergy score with BYL719	synergy score with cetuximab	synergy score with trametinib	outcome
1	KSR2	SID152149204	0.32	0.944	0.0225	-0.127	-0.153	inactive
2	PSKH1	SID135620975	0.842	1	-0.0505	-0.0738	-0.0886	inactive
3	NRBP1	SID135620974	-0.584	0.848	-0.0538	0.0178	0.0853	inactive
4	TPK1	SID135621256	0.842	1	-0.0743	0.0835	0.15	inactive
5	PHKB	SID134312707	0.842	1	-0.0788	0.0319	-0.146	inactive
6	PKIB	SID56479212	0.842	1	-0.0788	-0.0757	-0.0795	inactive
7	IRAK2	SID152151590	0.842	1	-0.0788	-0.0757	0.135	inactive
8	PIK3CD	SID135621250	0.842	1	-0.0788	-0.067	0.121	inactive
9	MKNK1	SID135620901	0.842	1	-0.0788	0.00779	0.0307	inactive
10	FRK	SID56478519	-0.99	0.805	-0.247	-0.186	-0.0435	inactive
11	FYN	SID135620621	-0.0747	0.902	-0.169	-0.0317	-0.0433	inactive
12	APC	SID152153239	-1.12	0.791	-0.216	-0.0373	-0.0175	inactive
13	ABL2	SID152153611	0.842	1	0.0494	0.0867	0.0726	inactive
14	MAP4K5	SID56478702	-1.96	0.702	-0.18	-0.0652	0.0594	inactive
15	MECOM	SID135621208	0.842	1	-0.0113	-0.0706	-0.152	inactive
16	IKBKG	SID152147833	0.277	0.94	0.021	-0.0676	-0.0414	inactive
17	RYK	SID152147158	0.842	1	-0.0432	-0.0757	0.0173	inactive
18	DUSP21	SID134312829	0.784	0.994	0.062	0.0532	0.206	inactive
19	NRBP2	SID56479019	-0.525	0.854	0.00186	-0.137	-0.000708	inactive
20	CAMKK2	SID135620895	-0.872	0.817	-0.199	-0.0606	0.0152	inactive
21	CDK5	SID56478599	0.276	0.94	-0.0805	0.0761	0.0477	inactive
22	EFNA5	SID152151552	0.842	1	-0.0788	-0.06	-0.104	inactive
23	PRKACA	SID135620859	0.344	0.947	0.0353	0.0229	0.0457	inactive
24	CDK1	SID56478584	0.842	1	-0.0654	-0.0757	-0.11	inactive
25	ADK	SID56478860	0.0278	0.913	-0.115	0.0138	0.0385	inactive
26	CASK	SID56479000	-1.18	0.785	-0.242	-0.0656	0.017	inactive
27	FXR1	SID152147249	0.252	0.937	-0.109	-0.0522	0.148	inactive
28	PRKAR2A	SID152153424	0.785	0.994	0.0306	0.203	0.0946	inactive
29	RIPK3	SID152154350	-0.268	0.882	-0.188	-0.185	0.0195	inactive
30	IGF2R	SID152150296	0.842	1	-0.0788	-0.00042	0.117	inactive
31	CTCF	SID135623925	0.842	1	-0.0444	-0.0757	-0.163	inactive
32	MAP3K14	SID135620705	-0.0856	0.901	0.0154	-0.0266	-0.0874	inactive
33	ASPM	SID135623115	0.0192	0.912	-0.114	-0.115	-0.0786	inactive
34	EIF2AK2	SID56478676	-1.16	0.787	-0.174	0.0103	0.0212	inactive
35	PFKP	SID56479236	0.159	0.927	-0.00572	0.0383	-0.0494	inactive
36	PRKCSH	SID56479239	0.842	1	0.0354	0.08	0.0337	inactive
37	MYLK3	SID152154935	-0.158	0.893	0.0962	0.0735	0.0456	inactive
38	PRKDC	SID56478960	-1.14	0.789	-0.131	-0.00294	-0.0763	inactive
39	ETNK1	SID152152739	0.397	0.953	-0.122	0.141	0.0607	inactive
40	CDKN2D	SID135620643	-1.5	0.751	-0.12	-0.00495	0.168	inactive
41	TSKS	SID56479267	0.842	1	-0.0779	-0.0349	-0.0303	inactive
42	FES	SID56478510	-1.76	0.722	-0.17	-0.0869	0.07	inactive
43	GUCY2D	SID135620972	-2.86	0.605	-0.222	-0.252	-0.0502	inactive
44	SIK2	SID135620885	0.842	1	0.0677	-0.012	-0.182	inactive
45	NUP98	SID152147776	-1.22	0.78	-0.135	-0.0964	-0.0733	inactive
46	IRAK4	SID134309837	-1.79	0.72	-0.12	-0.204	-0.0294	inactive
47	RIOK2	SID134310711	-0.609	0.845	-0.0823	-0.0793	-0.0611	inactive
48	AURKB	SID152151121	-2.3	0.666	0.0124	-0.11	0.0527	inactive
49	PFKFB3	SID135621247	-2.24	0.671	-0.023	-0.122	0.144	inactive
50	XYLB	SID152153831	-1.24	0.779	-0.123	-0.134	-0.115	inactive
